Results taken from patent US20050096392A1, “Use of creatine pyruvate for increasing stamina during highly intensive intermittent physical exertion” (priority 2002, published 2005).

Tested on: lower arm musculature
Assay: Intermittent test with the lower arm musculature, blood tests and acid-base status
Type: in vivo, human
Experimental: In a double-blind study, creatine pyruvate (A) and placebo (B) were tested. The male experimental subjects (n=32; age: 18 to 32) were divided into groups, each of n=16, so that the maximum oxygen consumption per kilogram of body weight was on average the same in the groups, and the types of sport undertaken were usually distributed the same as far as possible. This led to the fact that the mean strength in the intermittent studies was not the same. The test subjects of group A were administered 5.0 g of creatine pyruvate per day over a period of 28 days. The initial test (IT) was carried out on the 1st day, and the closing test (CT) on the 29th day.
The arm of the seated test subjects is positioned extended (horizontally) at the side at shoulder height. The hand lies on an adjustable-weight gripper (stroke length: 3 cm). The arm is supported at the elbow. The test subjects must perform highly intensive intermittent work, for which they compress the adjustable-weight gripper at the maximum possible frequency. The weight in the basket is 80% of the maximum weight achieved in a preliminary test in which the load, starting at 7.5 kg, is increased by 2.5 kg every 3 minutes. The contraction frequency is 24/min. The maximum weight is reached when the 3 cm stroke length can no longer be overcome. Blood is taken from the cubital vein on the working arm. The skin blood flow is reduced by cooling. Blood was taken in each case before and after the 1st, 2nd, 6th, 9th and 10th period.

With creatine pyruvate the “HBO2 at the end of the interval pauses” value (in vivo) was “significantly lower”, the “Blood parameters not associated with the acid-base status” value (initial test vs closing test) was “no significant difference” and the “Absolute values of pH, pCO2, lactate and BE” value (initial vs closing test) was “no significant differences”. The “Change of pCO2 during the working phase” value (initial vs closing test) was “tendency to be greater” and the “Pooled pCO2 differences between measurements before and after intervals 2, 6, 9 and 10” value (p<0.05) was “greater difference”.
